For the experiment, the system named is L1210 leukemia ip in BDF1 mice, survival T/C. Description: NCI In Vivo Anticancer Drug Screen. Data for tumor model L1210 Leukemia (intraperitoneal) in B6D2F1 (BDF1) mice. Particulars: higher T/C = longer survival.
Setting [1] is: T/C endpoint: mean survival time, dose: 400.0 mg/kg/injection, schedule: Q01DX001 (ip), vehicle: saline.
Setting [2] is: T/C endpoint: mean survival time, dose: 400.0 mg/kg/injection, schedule: Q01DX009 (ip), vehicle: saline with Tween-80.
Setting [3] is: T/C endpoint: mean survival time, dose: 400.0 mg/kg/injection, schedule: Q01DX009 (ip), vehicle: saline.
The mark [4] stands for this setting: T/C endpoint: mean survival time, dose: 400.0 mg/kg/injection, schedule: Q04DX003 (ip), vehicle: saline.
[5] abbreviates: T/C endpoint: mean survival time, dose: 600.0 mg/kg/injection, schedule: Q01DX009 (ip), vehicle: saline with Tween-80.

The list does not hold the whole screen: it gathers tests that were run many times, whatever their T/C, doses with no T/C, and many T/C values between a quarter and a half above the control. Further doses and runs are listed elsewhere. T/C: endpoint of the treated group in % of that of the vehicle group. Some entries give survivors of the animals treated and no T/C: the source holds a T/C of zero for them, seemingly a mark for toxic or unscored doses. Some survivor counts are full or nearly so, which does not show that the dose was tolerated: the source hardly ever lists a survival T/C far under the control, and the zero likely stands for such cases as well. Survivors were counted at the toxicity check, usually on the fifth day, unless a day is given; later deaths do not show. Schedule codes are those of the source, read here as Q, the interval in days (D) or hours (H), X, the number of doses. Some schedule codes hold Z or #, which are not explained here. Some structures stand for samples that the source files as different forms (salt, stereo form or complex); doses refer to the form tested. Some entries were tested several times; their values stand side by side, smallest first. Signs of the kind (2×) stand for listed records that agree. Where survival is the endpoint, the PubChem record calls one and a half times the control and up active, and a quarter to a half above the control has no call in these data; cut-offs in other NCI protocols can differ. Some T/C values are followed by the survivors on the day toxicity was checked, most often the fifth; without a count, all were alive then.

Drawing on PubChem BioAssay AID248 (DTP/NCI, 2004), this text covers T/C and survivor count for 13 compounds.

Take `CC1OCC(C[N+](C)(C)C)O1` (stereo unspecified): the T/C (T/C endpoint: mean survival time, dose: 0.37 mg/kg/injection, schedule: Q04DX002 (ip), vehicle: saline) was 141 % of control. Besides, the survivor count was 1 of 3 (T/C endpoint: mean survival time, dose: 3.0 mg/kg/injection, schedule: Q04DX002 (ip), vehicle: saline); 0 of 3 (T/C endpoint: mean survival time, dose: 6.0 mg/kg/injection, schedule: Q04DX002 (ip), vehicle: saline); 0 of 3 (T/C endpoint: mean survival time, dose: 12.5 mg/kg/injection, schedule: Q04DX002 (ip), vehicle: saline); 0 of 3 (T/C endpoint: mean survival time, dose: 25.0 mg/kg/injection, schedule: Q04DX002 (ip), vehicle: saline); 0 of 3 (T/C endpoint: mean survival time, dose: 50.0 mg/kg/injection, schedule: Q04DX002 (ip), vehicle: saline); 0 of 3 (T/C endpoint: mean survival time, dose: 100.0 mg/kg/injection, schedule: Q04DX002 (ip), vehicle: saline). Moreover, the survivor count is listed as 0 of 3 (T/C endpoint: mean survival time, dose: 200.0 mg/kg/injection, schedule: Q04DX002 (ip), vehicle: saline) and 3 of 3 (T/C endpoint: mean survival time, dose: 400.0 mg/kg/injection, schedule: Q04DX002 (ip), vehicle: saline).
Take `O=[N+]([O-])c1ccc(O)c(N=Cc2ccc(C=Nc3cc([N+](=O)[O-])ccc3O)cc2)c1`: the survivor count (T/C endpoint: mean survival time, dose: 200.0 mg/kg/injection, schedule: Q01DX009 (ip), vehicle: Klucel (hydroxypropylcellulose) (HPC)) is reported as 3 of 6.
Turning to `CCCCCc1cc(O)c(CCCC)c(O)c1`, the survivor count (T/C endpoint: mean survival time, dose: 100.0 mg/kg/injection, schedule: Q04DX002 (ip), vehicle: other) is 3 of 3; the survivor count (T/C endpoint: mean survival time, dose: 200.0 mg/kg/injection, schedule: Q04DX002 (ip), vehicle: other) was 3 of 3; the survivor count (T/C endpoint: mean survival time, dose: 400.0 mg/kg/injection, schedule: Q04DX002 (ip), vehicle: other) is listed as 0 of 3.
For the compound `Nc1cc(C(=O)Nc2ccc(C3=NCCN3)cc2)ccc1C(=O)Nc1ccc(C2=NCCN2)cc1`, the T/C runs as follows: (T/C endpoint: mean survival time, dose: 1.1 mg/kg/injection, schedule: Q01DX Z (ip), vehicle: saline) 125 [5 of 6 alive] and 126 % of control; (T/C endpoint: mean survival time, dose: 1.7 mg/kg/injection, schedule: Q01DX Z (ip), vehicle: saline) 131 and 145 % of control; (T/C endpoint: mean survival time, dose: 2.5 mg/kg/injection, schedule: Q01DX Z (ip), vehicle: methylcellulose (MC)) 130 % of control; (T/C endpoint: mean survival time, dose: 2.6 mg/kg/injection, schedule: Q01DX Z (ip), vehicle: saline) 137 % of control; (T/C endpoint: mean survival time, dose: 4.0 mg/kg/injection, schedule: Q01DX Z (ip), vehicle: methylcellulose (MC)) 127 % of control; (T/C endpoint: mean survival time, dose: 4.0 mg/kg/injection, schedule: Q01DX Z (ip), vehicle: saline) 148 % of control. The T/C was 130 % of control (T/C endpoint: mean survival time, dose: 6.0 mg/kg/injection, schedule: Q01DX Z (ip), vehicle: methylcellulose (MC)); 148 % of control [5 of 6 alive] (T/C endpoint: mean survival time, dose: 14.0 mg/kg/injection, schedule: Q01DX Z (ip), vehicle: methylcellulose (MC)); 126 % of control (T/C endpoint: mean survival time, dose: 22.5 mg/kg/injection, schedule: Q01DX015 (ip), vehicle: carboxymethylcellulose (CMC)). The survivor count was 6 of 6 (T/C endpoint: mean survival time, dose: 31.0 mg/kg/injection, schedule: Q01DX Z (ip), vehicle: methylcellulose (MC)); 5 of 6 (T/C endpoint: mean survival time, dose: 47.0 mg/kg/injection, schedule: Q01DX Z (ip), vehicle: methylcellulose (MC)); 3 of 6 (T/C endpoint: mean survival time, dose: 67.5 mg/kg/injection, schedule: Q01DX Z (ip), vehicle: carboxymethylcellulose (CMC)).
On to `COc1nc(N)c(C#N)cc1C#N`, for which the survivor count (T/C endpoint: mean survival time, dose: 200.0 mg/kg/injection, schedule: Q04DX003 (ip), vehicle: Klucel (hydroxypropylcellulose) (HPC)) is reported as 0 of 6 and the survivor count (T/C endpoint: mean survival time, dose: 400.0 mg/kg/injection, schedule: Q04DX003 (ip), vehicle: Klucel (hydroxypropylcellulose) (HPC)) is 0 of 6.
Consider `O=C(NO)c1ccccc1`, for which the survivor count is, setting by setting: (T/C endpoint: mean survival time, dose: 200.0 mg/kg/injection, schedule: Q03HX032 (ip), vehicle: saline) 7 of 10; (T/C endpoint: mean survival time, dose: 300.0 mg/kg/injection, schedule: Q03HX032 (ip), vehicle: saline) 3 of 10; under setting [1], 1 of 3; under setting [2], 3 of 6; (T/C endpoint: mean survival time, dose: 450.0 mg/kg/injection, schedule: Q03HX032 (ip), vehicle: saline) 0 of 10; (T/C endpoint: mean survival time, dose: 800.0 mg/kg/injection, schedule: Q01DX009 (ip), vehicle: Klucel (hydroxypropylcellulose) (HPC)) 1 of 8. Besides, the T/C is 128 % of control [5 of 6 alive] (T/C endpoint: mean survival time, dose: 266.0 mg/kg/injection, schedule: Q01DX009 (ip), vehicle: saline); 128 % of control [7 of 8 alive] (T/C endpoint: mean survival time, dose: 400.0 mg/kg/injection, schedule: Q01DX009 (ip), vehicle: Klucel (hydroxypropylcellulose) (HPC)); 147 % of control (T/C endpoint: mean survival time, dose: 400.0 mg/kg/injection, schedule: Q01DX009 (ip), vehicle: acetone); 147 % of control [4 of 6 alive] under setting [2]; 136 [4 of 6 alive] and 139 % of control under setting [3]; 125 % of control under setting [4]. Also, the T/C reads like this: under setting [5], 129 % of control; (T/C endpoint: mean survival time, dose: 670.0 mg/kg/injection, schedule: Q01DX015 (ip), vehicle: saline) 130 % of control [9 of 10 alive].
In the case of `O=NN(CCCl)C(=O)NC1CCC(=O)NC1=O` (stereo unspecified), the T/C was 130 % of control (T/C endpoint: mean survival time, dose: 4.0 mg/kg/injection, schedule: Q01DX001 (ip), vehicle: other); 135 % of control (T/C endpoint: mean survival time, dose: 31.0 mg/kg/injection, schedule: Q01DX001 (ip), vehicle: other); 143 % of control (T/C endpoint: median survival time, dose: 2.5 mg/kg/injection, schedule: Q01DX001 (ip), vehicle: other); 134 % of control (T/C endpoint: median survival time, dose: 2.5 mg/kg/injection, schedule: Q01DX001 (ip), vehicle: saline). The survivor count is 6 of 6 (T/C endpoint: mean survival time, dose: 62.0 mg/kg/injection, schedule: Q01DX001 (ip), vehicle: other); 6 of 6 (T/C endpoint: mean survival time, dose: 125.0 mg/kg/injection, schedule: Q01DX001 (ip), vehicle: other); 0 of 6 (T/C endpoint: mean survival time, dose: 250.0 mg/kg/injection, schedule: Q01DX001 (ip), vehicle: other); 0 of 6 (T/C endpoint: mean survival time, dose: 375.0 mg/kg/injection, schedule: Q01DX001 (ip), vehicle: other); 0 of 6 (T/C endpoint: mean survival time, dose: 500.0 mg/kg/injection, schedule: Q01DX001 (ip), vehicle: other); 0 of 6 (T/C endpoint: mean survival time, dose: 750.0 mg/kg/injection, schedule: Q01DX001 (ip), vehicle: other).
For the compound `CC(=O)Nc1nc(=O)n(CC(=O)c2cccs2)cc1F`, the survivor count by setting is: under setting [2], 1 of 6; under setting [5], 0 of 6.
As to `CC[N+](CC)(CC)Cc1ccccc1` (tested in a mixture with another compound), the survivor count reads like this: (T/C endpoint: mean survival time, dose: 50.0 mg/kg/injection, schedule: Q01DX009 (ip), vehicle: saline) 3 of 3; (T/C endpoint: mean survival time, dose: 100.0 mg/kg/injection, schedule: Q01DX009 (ip), vehicle: saline) 0 of 3 and 4 of 6; (T/C endpoint: mean survival time, dose: 100.0 mg/kg/injection, schedule: Q04DX003 (ip), vehicle: saline) 3 of 6, 4 of 6, 5 of 6; (T/C endpoint: mean survival time, dose: 200.0 mg/kg/injection, schedule: Q01DX001 (ip), vehicle: saline) 1 of 6; (T/C endpoint: mean survival time, dose: 200.0 mg/kg/injection, schedule: Q01DX009 (ip), vehicle: saline) 0 of 6; (T/C endpoint: mean survival time, dose: 200.0 mg/kg/injection, schedule: Q04DX003 (ip), vehicle: saline) 0 of 6 (2×). In addition, the survivor count is, setting by setting: under setting [1], 1 of 6; under setting [3], 0 of 6; under setting [4], 0 of 6 (2×).
On to `O=[N+]([O-])c1ccc(Cl)c2ccccc12`, for which, under “T/C endpoint: mean survival time, dose: 50.0 mg/kg/injection, schedule: Q01DX009 (ip), vehicle: saline with Tween-80”, the survivor count was 3 of 3.
Turning to `O=C1C(c2c[nH]c3ccccc23)=Nc2ccc(Br)cc21`, the survivor count under setting [1] is reported as 2 of 4.
On to `C[N+]1(N[P+](=O)NN2CCCCC2)CCCCC1` (stereo unspecified), for which, where the note is “T/C endpoint: mean survival time, dose: 400.0 mg/kg/injection, schedule: Q01DX001 (ip), vehicle: carboxymethylcellulose (CMC)”, the survivor count was 0 of 6.
`O=C(Nc1ccc(C2=NCCN2)cc1)c1cccc(C(=O)Nc2ccc(C3=NCCN3)cc2)n1`: where the note is “T/C endpoint: mean survival time, dose: 120.0 mg/kg/injection, schedule: Q01DX Z (ip), vehicle: methylcellulose (MC)”, the T/C was 129 and 136 % of control.
